Laboratory results as given in article PMC7670567.
These are yes or no findings as the source states them, for the method shown. Some entries that bind do so weakly or less than the wild type.

Protein sequences, listed by entry. Tags and fused reporters are not part of them.
UniProt P01127: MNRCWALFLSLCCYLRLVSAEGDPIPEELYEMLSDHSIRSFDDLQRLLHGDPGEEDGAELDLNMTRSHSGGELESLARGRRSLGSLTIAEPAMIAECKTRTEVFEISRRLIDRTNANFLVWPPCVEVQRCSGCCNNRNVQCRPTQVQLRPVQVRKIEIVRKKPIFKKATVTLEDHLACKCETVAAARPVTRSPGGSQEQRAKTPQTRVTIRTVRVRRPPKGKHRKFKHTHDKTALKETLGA
UniProt Q13489: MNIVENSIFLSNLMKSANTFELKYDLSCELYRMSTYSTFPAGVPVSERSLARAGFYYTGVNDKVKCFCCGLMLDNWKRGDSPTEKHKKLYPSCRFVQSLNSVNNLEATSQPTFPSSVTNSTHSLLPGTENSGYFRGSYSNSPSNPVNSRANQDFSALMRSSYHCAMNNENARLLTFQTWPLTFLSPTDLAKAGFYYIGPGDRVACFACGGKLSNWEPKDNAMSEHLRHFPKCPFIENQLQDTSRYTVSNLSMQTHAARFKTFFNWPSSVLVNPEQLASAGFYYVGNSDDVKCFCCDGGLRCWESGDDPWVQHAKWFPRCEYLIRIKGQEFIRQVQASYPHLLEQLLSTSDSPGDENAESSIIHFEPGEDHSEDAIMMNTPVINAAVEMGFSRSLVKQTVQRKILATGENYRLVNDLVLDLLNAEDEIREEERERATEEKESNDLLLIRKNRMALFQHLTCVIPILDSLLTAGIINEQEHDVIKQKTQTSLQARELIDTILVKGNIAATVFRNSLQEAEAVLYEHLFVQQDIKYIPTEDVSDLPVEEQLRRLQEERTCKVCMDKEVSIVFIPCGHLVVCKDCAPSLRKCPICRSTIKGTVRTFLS
UniProt O00571: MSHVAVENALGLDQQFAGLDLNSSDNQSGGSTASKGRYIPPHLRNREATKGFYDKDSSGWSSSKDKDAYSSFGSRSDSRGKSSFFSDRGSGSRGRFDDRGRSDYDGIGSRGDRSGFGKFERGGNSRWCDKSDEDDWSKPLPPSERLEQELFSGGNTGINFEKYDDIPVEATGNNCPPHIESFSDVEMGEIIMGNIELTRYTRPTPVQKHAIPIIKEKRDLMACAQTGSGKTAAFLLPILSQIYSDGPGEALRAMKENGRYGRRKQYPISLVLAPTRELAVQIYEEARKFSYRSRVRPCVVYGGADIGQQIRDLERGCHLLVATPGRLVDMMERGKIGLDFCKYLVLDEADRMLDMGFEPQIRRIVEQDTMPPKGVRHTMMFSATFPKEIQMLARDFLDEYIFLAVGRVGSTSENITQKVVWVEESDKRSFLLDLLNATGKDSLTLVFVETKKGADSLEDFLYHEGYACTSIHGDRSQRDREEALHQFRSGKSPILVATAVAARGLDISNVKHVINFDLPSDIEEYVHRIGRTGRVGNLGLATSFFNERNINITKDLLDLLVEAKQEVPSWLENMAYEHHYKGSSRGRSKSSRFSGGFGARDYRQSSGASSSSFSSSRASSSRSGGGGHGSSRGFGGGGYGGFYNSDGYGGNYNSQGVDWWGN

Experiments:
Assay in all cases: two-hybrid; automated high-throughput yeast two-hybrid system (Myrexis); 27 HAX1 baits screened, HAX1 also prey from 21 baits; nine libraries (brain, substantia nigra, hypothalamus, hippocampus, spleen, liver, colon, testis, breast cancer/prostate cancer)
[1] = molecular target: T1, clock circadian regulator (CLOCK), two-hybrid bait (UniProt O15516)
T1 sequence: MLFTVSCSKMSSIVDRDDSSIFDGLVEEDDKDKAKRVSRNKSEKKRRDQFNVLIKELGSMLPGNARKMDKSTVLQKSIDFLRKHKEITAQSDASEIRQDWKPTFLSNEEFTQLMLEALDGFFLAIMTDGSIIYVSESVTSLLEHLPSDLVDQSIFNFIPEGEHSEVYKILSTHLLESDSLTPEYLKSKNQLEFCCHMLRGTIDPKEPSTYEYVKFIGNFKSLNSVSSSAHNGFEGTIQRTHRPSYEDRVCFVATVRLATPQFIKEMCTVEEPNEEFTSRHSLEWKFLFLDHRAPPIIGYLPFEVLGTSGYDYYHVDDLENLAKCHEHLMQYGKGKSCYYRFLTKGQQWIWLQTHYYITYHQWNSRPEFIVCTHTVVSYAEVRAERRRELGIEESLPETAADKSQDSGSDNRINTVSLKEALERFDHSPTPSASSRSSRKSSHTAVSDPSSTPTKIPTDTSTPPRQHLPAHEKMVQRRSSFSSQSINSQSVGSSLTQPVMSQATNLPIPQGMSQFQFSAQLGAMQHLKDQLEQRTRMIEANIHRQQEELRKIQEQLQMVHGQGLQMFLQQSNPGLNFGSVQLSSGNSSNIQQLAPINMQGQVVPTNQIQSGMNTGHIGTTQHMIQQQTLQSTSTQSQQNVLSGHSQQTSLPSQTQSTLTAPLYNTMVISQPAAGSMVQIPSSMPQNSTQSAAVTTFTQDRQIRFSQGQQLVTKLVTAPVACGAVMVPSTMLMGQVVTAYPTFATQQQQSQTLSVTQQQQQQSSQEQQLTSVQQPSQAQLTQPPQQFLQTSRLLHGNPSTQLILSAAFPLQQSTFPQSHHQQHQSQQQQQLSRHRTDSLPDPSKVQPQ

[2] = molecular target: platelet-derived growth factor subunit B (PDGFB), two-hybrid bait (UniProt P01127)
[3] = molecular target: baculoviral IAP repeat-containing 3 (BIRC3), two-hybrid bait (UniProt Q13489)
[4] = molecular target: DDX3X RNA helicase, two-hybrid bait (UniProt O00571)

Measured: binding

HCLS1-associated protein X-1 (HAX1), yeast two-hybrid baits and prey clones (from UniProt O00165 1-279)
binds: all assays above
